Reference: PubChem BioAssay AID504834 (National Center for Advancing Translational Sciences (NCATS), 2011)
In all, about 320,000 compounds went through this assay and about 22,000 (6.9%) were called active. Inconclusive means that the source gave no clear call. Such entries were picked first, then a sample of the others. Calls come from the whole dose curve; as a rule, active = well fitted inhibition curve with a large enough effect; inconclusive = small, poorly fitted or top-dose-only effect, or another doubt; inactive = no such curve, though single readings can be large or run the other way. Where the call is inconclusive, the potency comes from a doubtful curve fit.

Experiment: Primary qHTS for delayed death inhibitors of the malarial parasite plastid, 96 hour incubation
Conditions: P. falciparum luciferase reporter growth; series mostly up to 28.7 µM
Outline: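 Two-generation exposure (96 h) targets delayed-death phenotype. Reporter parasites carrying integrated firefly luciferase, in red cells at 2% hematocrit and 0.05% parasitemia final, kept at 37 C, 5% CO2; luminescence loss indicates inhibition.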
% is set by controls: 0 for no effect and ±100 for the full control effect; potency is the fitted concentration of half-maximal effect.

Row | SMILES | Potency | activity change, negative = inhibition
1 | CC1CC(C)(C)N(C(=O)NC2CCCCC2)c2ccccc21 (configuration not stated) | inactive | 
2 | CC(C)(C)OC(=O)CC[C@@H](C(=O)N1CCN(C(=O)OC(C)(C)C)CC1)n1cc(C(Cc2ccc(O)cc2)NC(=O)OC(C)(C)C)nn1 (some centres not stated) | active: 4.65 µM | 
3 | COc1cccc(/C(C)=N/Nc2ccc(S(=O)(=O)N3CCCCC3)cn2)c1 | inconclusive: 10.4 µM [inhibitor, partial curve, poor fit] | 
4 | c1ccc2c(CN3CCN(C4CCCCC4)CC3)c[nH]c2c1 | active: 11.7 µM | 
5 | O=C(Oc1ccccc1O)c1cccc2ccccc12 | inactive | 
6 | CCOc1cc2[nH]c(=S)n(Cc3ccc(C(=O)N4CCN(C)CC4)cc3)c(=O)c2cc1OCC | inactive | 
7 | CC(=O)Nc1cccc(Oc2cc(C#N)c(C#N)cc2N2CCCCCC2)c1 | inactive | 
8 | CCCCOc1ccc(C(=O)NCC2(c3ccccc3)CCOCC2)cc1 | active: 10.4 µM | 
9 | CC(=O)N1CCN(c2ccccc2NC(=O)c2cccc3c(Cl)cccc23)CC1 | inactive | 
10 | Cc1cc(Nc2ccc(F)cc2)n2nc(C)nc2n1 | inconclusive: 18.5 µM [inhibitor, single point] | 
11 | CCC(C)Sc1cc(C)c(C#N)c2nc3ccccc3n12 (configuration not stated) | active: 2.94 µM | 
12 | CC(C)c1ccc(NC(=O)CCCC(=O)NCCc2ccccc2)cc1 | inconclusive: 9.28 µM [inhibitor, partial curve, poor fit] | 
13 | CC1=C2C3OC(=O)C(C)[C@@H]3CC[C@](C)(O)C2C2C3C4C5(C12)[C@H]1OC(=O)[C@@H](C)C1CC[C@]4(C)O[C@]5(C)[C@@H]3O (some centres not stated) | inactive | 
14 | Cc1cccc(NC(=O)CSc2nnc(-c3ccccc3C)o2)c1 | inactive | 
15 | Cc1nn(Cc2ccccc2)c2sc(C(=O)NCc3cccnc3)cc12 | inconclusive: 4.65 µM [inhibitor, partial curve] | 
16 | O=c1c(-c2ccccc2Cl)coc2c(CN3CCCCC3)c(O)ccc12 | inconclusive: 9.28 µM [inhibitor, single point] | 
17 | Cc1cc(-c2ccc(C)c(S(=O)(=O)NCCC(C)N3CCCCCC3)c2)on1 (configuration not stated) | inactive | 
18 | CC1(C)Cc2nc3sc4c(SCC(=O)NC(c5ccccc5)c5ccccc5)ncnc4c3cc2CO1 | inconclusive: 1.47 µM [inhibitor, full curve, poor fit] | 
19 | CCOC(=O)c1c(NC(=O)CSc2nnnn2-c2ccc(OC)cc2)sc(C)c1C | inconclusive: 11.7 µM [inhibitor, partial curve, poor fit] | 
20 | FC(F)(F)c1cnc(N/N=C/c2ccncc2)c(Cl)c1 | inactive | 
21 | O=C(Nc1ccc([N+](=O)[O-])cn1)C1CC2CCC1C2 (configuration not stated) | inactive | 
22 | O=C(Nc1ccc(F)cc1)c1oc2ccccc2c1NC(=O)C1CC1 | inactive | 
23 | COc1ccc(CCNC(=O)c2cc(-c3ccncc3)nc3ccc(S(=O)(=O)N4CCOCC4)cc23)cc1OC | inconclusive: 18.5 µM [inhibitor, single point] | 
24 | CN1CCN(C(=O)c2ccccc2NC(=O)c2ccc(C(C)(C)C)cc2)CC1 | inconclusive: 18.5 µM [inhibitor, single point] | 
25 | N#CC1(NC(=O)COC(=O)Cn2[nH]c(=O)c3ccccc3c2=O)CCCCC1 | inactive | 
26 | CC(C)(C)OC(=O)NNc1c2ccccc2nc2ccccc12 | inactive | 

Part of the list above, reformatted:
O=c1c(-c2ccccc2Cl)coc2c(CN3CCCCC3)c(O)ccc12
  Potency: inconclusive: 9.28 µM [inhibitor, single point]
Cc1cc(-c2ccc(C)c(S(=O)(=O)NCCC(C)N3CCCCCC3)c2)on1 (configuration not stated)
  Potency: inactive
CC1(C)Cc2nc3sc4c(SCC(=O)NC(c5ccccc5)c5ccccc5)ncnc4c3cc2CO1
  Potency: inconclusive: 1.47 µM [inhibitor, full curve, poor fit]
CCOC(=O)c1c(NC(=O)CSc2nnnn2-c2ccc(OC)cc2)sc(C)c1C
  Potency: inconclusive: 11.7 µM [inhibitor, partial curve, poor fit]

Remaining list, next part.

Row | SMILES | Potency | activity change, negative = inhibition
27 | COc1ccc(N(C)C(=O)Nc2ccc3nsnc3c2)cc1 | inactive | 
28 | CCOc1ccc(C(C)NC(=O)c2ccccc2OCc2c(C)noc2C)cc1OCC (configuration not stated) | active: 6.57 µM | 
29 | COc1ccc2cc(CCNC(=O)c3cccc([N+](=O)[O-])c3)c(=O)[nH]c2c1 | inconclusive: 4.15 µM [inhibitor, single point] | 
30 | Cc1cccc(NC(=S)NC2CCSc3ccccc32)c1 (configuration not stated) | inconclusive: 3.7 µM [inhibitor, partial curve, poor fit] | 
31 | CCc1nnc(NS(=O)(=O)c2ccc(NC(=S)NC(=O)/C=C/c3ccc(F)cc3)cc2)s1 | active: 10.4 µM | 
32 | CN(C)C1=NC(=O)/C(=C/c2ccc(-c3ccc(S(N)(=O)=O)cc3)o2)S1 | inactive | 
33 | CN(C)S(=O)(=O)c1cccc(C(=O)Nc2cccnc2)c1 | active: 3.29 µM | 
34 | N#Cc1c(SCc2ccccc2)nc(N2CCOCC2)c2c1CCCC2 | inconclusive: 16.5 µM [inhibitor, single point] | 
35 | Cc1nc(Nc2ccc(S(N)(=O)=O)cc2)sc1C(=O)Nc1ccccc1 | inactive | 
36 | Oc1cc(Cl)ccc1Oc1ccc(Cl)cc1Cl | active: 6.01 µM | 
37 | COc1ccc(NC(=O)CN2CCN(S(=O)(=O)c3ccc(F)cc3)CC2)cc1Cl | inconclusive: 2.08 µM [inhibitor, full curve] | 
38 | CCOC(=O)c1cc(S(=O)(=O)Nc2ccc(F)cc2F)cn1C | inactive | 
39 | Cc1cc(N2CCN(C)CC2)nc2ccc(NC(=O)CCC(=O)N3CCN(c4ccc([N+](=O)[O-])cc4)CC3)cc12 | inactive | 
40 | Cn1cc(S(=O)(=O)CC(=O)Nc2ccc3c(c2)OCCO3)c2ccccc21 | inactive | 
41 | Cc1cc(C)c(C#N)c(Nc2ccccc2)n1 | inconclusive: 5.86 µM [inhibitor, partial curve, poor fit] | 
42 | O=C(CSc1nnc(-c2ccco2)o1)N1CCOCC1 | inactive | 
43 | COCCNc1nnc(Cc2ccccc2)c(=O)[nH]1 | inactive | 
44 | COc1ccc(C(=O)Nc2ccc(Cn3ccnc3)cc2)cc1OC | active: 10.4 µM | 
45 | COc1ccc(S(=O)(=O)N2CCCOC2CNC(=O)C(=O)NCCc2ccco2)cc1C (configuration not stated) | inactive | 
46 | COc1ccc(CC(=O)NC(C)CCc2ccccc2)cc1 (configuration not stated) | inconclusive: 1.04 µM [inhibitor, partial curve, poor fit] | 
47 | CC1(C2CC2)NC(=O)N(CC(=O)Nc2ccc(C(F)(F)F)cc2)C1=O (configuration not stated) | inactive | 
48 | O=C(COc1ccc2c(c1)CCC2)N1CCN(c2cccc(C(F)(F)F)c2)CC1 | inactive | 
49 | c1ccc(COc2ccc3nocc3c2)cc1 | inactive | 
50 | CC(C)(C)c1ccc(OCc2ccc(C(=O)N/N=C3\CC4CC=CC34)cc2)cc1 (configuration not stated) | inactive | 
51 | COc1ccc([C@H]2CC(=O)C=C(c3cccc(OCc4ccccc4)c3)C2)cc1 | inconclusive: 5.86 µM [inhibitor, single point] | 
52 | NNC(=O)CN1C(=O)Nc2ccc(Cl)cc2C1c1ccccc1 (configuration not stated) | inconclusive: 2.08 µM [inhibitor, full curve] | 

Row | SMILES | Potency | activity change, negative = inhibition
53 | CCCCOc1ccc(N(CC(=O)NC(C)(C)C)C(=O)CCC(=O)Nc2nccs2)cc1 | inactive | 
54 | C(#Cc1ccccc1)C[N+]1(CC#Cc2cccc3ccccc23)CCCC1 | inconclusive: 4.15 µM [inhibitor, partial curve, poor fit] | 
55 | O=c1[nH]cccc1-c1nc2ccccc2n1Cc1ccc(Cl)cc1 | inconclusive: 18.5 µM [inhibitor, partial curve, poor fit] | 
56 | CCN(CC)c1ccc(C(=O)OCC(=O)N2CCN(c3ccccc3)CC2)cc1 | inconclusive: 0.262 µM [inhibitor, full curve, poor fit] | 
57 | CC1(C(=O)N2CCC(CC3CC(c4ccc(Cl)cc4)=NO3)(C(=O)NCC3CCCCC3)CC2)CC1 (configuration not stated) | active: 1.47 µM | 
58 | S=C(Nc1ccc2c(c1)OCO2)Nc1ccc2c(c1)OCO2 | inactive | 
59 | Cc1nc(-c2ccc(NC(=O)c3ccco3)cc2)cs1 | inconclusive: 18.5 µM [inhibitor, single point] | 
60 | CCn1c2ccccc2c2cc(NC(=O)C(C)OC(=O)c3ccc(NC(=O)CC#N)cc3)ccc21 (configuration not stated) | inconclusive: 9.28 µM [inhibitor, partial curve, poor fit] | 
61 | O=C(CNC1=NCCC1)c1ccc2c(c1)OCCO2 | inconclusive: 18.5 µM [inhibitor, single point] | 
62 | Cc1ccc(-c2nnc(SCC(N)=O)nc2-c2ccc(C)cc2)cc1 | inactive | 
63 | Cc1nc2nc[nH]n2c(=O)c1NC(=O)c1cccc(OCC(C)C)c1 | inconclusive: 11.7 µM [inhibitor, partial curve, poor fit] | 
64 | O=C(OCc1ccccc1)c1cc(S(=O)(=O)N2CCCCC2)ccc1N1CCOCC1 | active: 11.7 µM | 
65 | Cc1onc(-c2ccccc2)c1C(=O)c1c[nH]c(C(=O)NCc2ccccn2)c1 | inconclusive: 13.1 µM [inhibitor, partial curve, poor fit] | 
66 | COc1ccc(NC(=O)C2CCCN(c3cc(C)nc4ncnn34)C2)cc1 (configuration not stated) | inconclusive: 18.5 µM [inhibitor, single point] | 
67 | COc1ccc(Cl)cc1S(=O)(=O)N(C)CC(=O)NCc1ccccn1 | inactive | 
68 | CC(OC(=O)c1nc(-c2ccccc2)n(-c2ccccc2)n1)C(=O)Nc1cc(Cl)cc(Cl)c1 (configuration not stated) | inactive | 
69 | CN(CCC#N)C(=O)COC(=O)c1ccc(Cl)c(S(=O)(=O)N(C)c2ccccc2)c1 |  | inactive: 37.4% [at 1.15 µM]
70 | Cc1cc(NC(=O)c2cc(-c3ccncc3)nc3c(C)cccc23)no1 | inactive | 
71 | O=C(c1cc2ccccc2[nH]1)N1CCOCC1 | inactive | 
72 | Cc1ccc(-n2c(-c3cn(C)nc3C)n[nH]c2=S)cc1 | inconclusive: 18.5 µM [inhibitor, single point] | 
73 | COc1ccccc1OCC(=O)NC1CCSc2ccccc21 (configuration not stated) | inconclusive: 9.28 µM [inhibitor, single point] | 
74 | O=C(CCNC(=O)c1ccccc1)NCC1CCCCC1 | inactive | 
75 | CCN(CCNC(=O)c1cccc(N2CCCC2=O)c1)c1ccccc1 | inactive | 
76 | O=C(c1sc2ccccc2c1Cl)N1CCN(c2ccccc2F)CC1 | inconclusive: 4.15 µM [inhibitor, single point] | 
77 | Cc1ccc(S(=O)(=O)N(CC(=O)Nc2cc(C)ccc2C)C(=O)N2CCN(C)CC2)cc1 | inconclusive: 4.15 µM [inhibitor, single point] | 
